# Laboratory results: PubChem BioAssay AID1259272 (Sanger Institute, 2017)
# Purpose: 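Kinase knock-downs lethal to colorectal cancer cells, with or without anchor drugs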 (primary screen)
# Cells: SW1116 human colorectal cancer cells
# Reagents: siRNA pool against human genes
# Treatment: anchor drugs BYL719 (1 µM), cetuximab (5 µg/ml) or trametinib (10 nM), or DMSO vehicle; exposure length not given
# Measurement: 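Replicate-averaged viability versus control-pool wells, with a robust z-score for siRNA alone and a per-drug synergy score (BYL719, cetuximab, trametinib)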
# Direction: viability z-score, no drug: higher = more cells remaining; strongly negative means essential gene; viability, no drug: higher = more viable cells
# Call rule: 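a robust z-score under -3 with siRNA and no drug marks the gene essential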
# Calls: active = essential (knock-down alone); inactive = no change
# This is a random part of 794 reagents. Over the whole deposit, 7 (0.88%) are marked active. 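Essential calls reflect knock-down without drug only, not synergy with drugs; drug exposure length not given.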 Unmarked entries are inactive. No viability above 1 is reported: the scale is capped. Further read-outs or replicates are left out here. Not given: the amount of reagent, the time to read-out.
gene,"viability z-score, no drug","viability, no drug (fraction of control)"
AKT3,-0.488,0.858
SLK,0.842,1
STYK1,-1.15,0.788
NME4,-0.312,0.877
ADPGK,0.842,1
LATS1,-0.996,0.804
PFKFB2,0.586,0.973
HCK,0.842,1
AK3,-0.642,0.842
EPHB1,-1.56,0.744
EXOSC10,-1.14,0.789
CALM2,-0.533,0.854
OBSCN,0.842,1
WT1,0.842,1
CDKN2B,0.842,1
NEK3,-3.65 (active),0.521
DDR1,0.842,1
CSNK2A1,0.842,1
GCK,0.842,1
UHMK1,0.842,1

Called active, of those listed so far:
gene,"viability z-score, no drug","viability, no drug (fraction of control)"
NEK3,-3.65 (active),0.521
